Test results as given in article PMC7462905.
Results are given in words; binding and its absence hold for the method and conditions named.

Target: T1, ligand-binding region (BR) domain of the pneumococcal serine-rich repeat protein PsrP, residues 187-385 (Streptococcus pneumoniae), A0A0H2
T1 chain: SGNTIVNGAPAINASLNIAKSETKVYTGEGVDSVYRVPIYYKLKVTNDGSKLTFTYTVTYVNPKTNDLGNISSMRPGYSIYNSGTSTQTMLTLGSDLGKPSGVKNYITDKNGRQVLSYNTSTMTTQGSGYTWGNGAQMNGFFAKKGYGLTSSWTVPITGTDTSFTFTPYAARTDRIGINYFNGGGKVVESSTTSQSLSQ
Experiment: NMR 15N relaxation (T1, T2, NOE; rotational correlation time); protein at least 0.7 mM in 50 mM Na-phosphate pH 5.0, 100 mM NaCl, 1 mM NaN3, 10% D2O, 298 K, 14.1 T; correlation time 13 ns compared with that expected for a 20 kDa protein; both purified
Details: remark: other sources report otherwise

B1: ligand-binding region (BR) domain of the pneumococcal serine-rich repeat protein PsrP, residues 187-385, A0A0H2URK1 187-385 (domain or fragment)
chain: SGNTIVNGAPAINASLNIAKSETKVYTGEGVDSVYRVPIYYKLKVTNDGSKLTFTYTVTYVNPKTNDLGNISSMRPGYSIYNSGTSTQTMLTLGSDLGKPSGVKNYITDKNGRQVLSYNTSTMTTQGSGYTWGNGAQMNGFFAKKGYGLTSSWTVPITGTDTSFTFTPYAARTDRIGINYFNGGGKVVESSTTSQSLSQ
Question: How did the binding turn out when B1 was run?
Answer: Its binding is “no binding (tested: at least 0.7 mM)”.
